Earlier results on one molecule are cited in US5959109A, “Compounds and methods for increasing endogenous levels of corticotropin-releasing factor” (Neurocrine Biosciences, Inc., priority 1996, dated 1999).

The conditions of this series: 0.3 mg/kg ip; cited from earlier work.

Turning to `CN1[C@@H]2C[C@@H](OC(=O)[C@H](CO)c3ccccc3)C[C@H]1[C@@H]1O[C@@H]12` [scopolamine], the “acquisition and retention of spatial and avoidance learning” value was “impairs acquisition and retention of spatial and avoidance learning paradigms in the rat”.
